From PMC4401782

Columns and labels:
[1] = target: RenU.6H, purified recombinant M. smegmatis RenU (added exogenously) (M. smegmatis); assay: pull-down; exogenous RenU.6H added to M. smegmatis lysates and re-purified; blots with anti-L13 and anti-6H antibodies; 6H.SHMT as control; only the target purified
[2] = target: RenU.6H, purified recombinant M. smegmatis RenU (added exogenously) (M. smegmatis); assay: pull-down; only the target purified

| binding [1] | binding [2] | Binder |
| --- | --- | --- |
| binds |  | 50S ribosomal protein L13 of M. smegmatis (endogenous) (protein, UniProt A0QSP8 1-147) MPTYTPKAGDTTRSWYVIDASDVVLGRLASAAATLLRGKHKPTFTPNVDGGDFVIVINADKIAVSGDKLTKKFAYRHSGYPGGLRKRTIGELLEKHPTRVVENAIIGMLPHNKLGRQIQKKLKVYAGPDHPHAAQQPIPFEIKQVAQ |
|  | binds | L13 of M. smegmatis phosphorylated at T11 by PknG (endogenous) (protein, UniProt A0QSP8 1-147, phosphothreonine at 11) MPTYTPKAGDTTRSWYVIDASDVVLGRLASAAATLLRGKHKPTFTPNVDGGDFVIVINADKIAVSGDKLTKKFAYRHSGYPGGLRKRTIGELLEKHPTRVVENAIIGMLPHNKLGRQIQKKLKVYAGPDHPHAAQQPIPFEIKQVAQ |

These are yes or no findings as the source states them, for the method shown. In cells and extracts the contact can be indirect. A result given as binding can be weak or reduced; the word gives no strength.
